Values quoted from earlier work in patent US20230183818A1, “ANTIBIOTIC SUSCEPTIBILITY OF MICROORGANISMS AND RELATED MARKERS, COMPOSITIONS, METHODS AND SYSTEMS” (priority 2018, published 2023).
For at least one compound, name, drawing or mass did not settle the structure.

Test system: Neisseria gonorrhoeae
Conditions: 30-µg tetracycline disk; cited from earlier work

CN(C)[C@@H]1C(O)=C(C(N)=O)C(=O)[C@@]2(O)C(O)=C3C(=O)c4c(O)cccc4[C@@](C)(O)[C@H]3C[C@@H]12 [Tetracycline]
disk zone diameter indicating plasmid-mediated tetracycline-resistant isolate: ≤ 19 mm
